Measurements taken from paper PMC8430637.
No constants are given. Whether binding was seen depends on the method and setting. Binding seen in cells or lysates may run through a third protein. Here binding means that the protein was enriched with, or labelled near, the bait; the list need not be complete.

Protein sequences, listed by entry. Tags and fused reporters are not part of them.
UniProt Q7Z6Z7: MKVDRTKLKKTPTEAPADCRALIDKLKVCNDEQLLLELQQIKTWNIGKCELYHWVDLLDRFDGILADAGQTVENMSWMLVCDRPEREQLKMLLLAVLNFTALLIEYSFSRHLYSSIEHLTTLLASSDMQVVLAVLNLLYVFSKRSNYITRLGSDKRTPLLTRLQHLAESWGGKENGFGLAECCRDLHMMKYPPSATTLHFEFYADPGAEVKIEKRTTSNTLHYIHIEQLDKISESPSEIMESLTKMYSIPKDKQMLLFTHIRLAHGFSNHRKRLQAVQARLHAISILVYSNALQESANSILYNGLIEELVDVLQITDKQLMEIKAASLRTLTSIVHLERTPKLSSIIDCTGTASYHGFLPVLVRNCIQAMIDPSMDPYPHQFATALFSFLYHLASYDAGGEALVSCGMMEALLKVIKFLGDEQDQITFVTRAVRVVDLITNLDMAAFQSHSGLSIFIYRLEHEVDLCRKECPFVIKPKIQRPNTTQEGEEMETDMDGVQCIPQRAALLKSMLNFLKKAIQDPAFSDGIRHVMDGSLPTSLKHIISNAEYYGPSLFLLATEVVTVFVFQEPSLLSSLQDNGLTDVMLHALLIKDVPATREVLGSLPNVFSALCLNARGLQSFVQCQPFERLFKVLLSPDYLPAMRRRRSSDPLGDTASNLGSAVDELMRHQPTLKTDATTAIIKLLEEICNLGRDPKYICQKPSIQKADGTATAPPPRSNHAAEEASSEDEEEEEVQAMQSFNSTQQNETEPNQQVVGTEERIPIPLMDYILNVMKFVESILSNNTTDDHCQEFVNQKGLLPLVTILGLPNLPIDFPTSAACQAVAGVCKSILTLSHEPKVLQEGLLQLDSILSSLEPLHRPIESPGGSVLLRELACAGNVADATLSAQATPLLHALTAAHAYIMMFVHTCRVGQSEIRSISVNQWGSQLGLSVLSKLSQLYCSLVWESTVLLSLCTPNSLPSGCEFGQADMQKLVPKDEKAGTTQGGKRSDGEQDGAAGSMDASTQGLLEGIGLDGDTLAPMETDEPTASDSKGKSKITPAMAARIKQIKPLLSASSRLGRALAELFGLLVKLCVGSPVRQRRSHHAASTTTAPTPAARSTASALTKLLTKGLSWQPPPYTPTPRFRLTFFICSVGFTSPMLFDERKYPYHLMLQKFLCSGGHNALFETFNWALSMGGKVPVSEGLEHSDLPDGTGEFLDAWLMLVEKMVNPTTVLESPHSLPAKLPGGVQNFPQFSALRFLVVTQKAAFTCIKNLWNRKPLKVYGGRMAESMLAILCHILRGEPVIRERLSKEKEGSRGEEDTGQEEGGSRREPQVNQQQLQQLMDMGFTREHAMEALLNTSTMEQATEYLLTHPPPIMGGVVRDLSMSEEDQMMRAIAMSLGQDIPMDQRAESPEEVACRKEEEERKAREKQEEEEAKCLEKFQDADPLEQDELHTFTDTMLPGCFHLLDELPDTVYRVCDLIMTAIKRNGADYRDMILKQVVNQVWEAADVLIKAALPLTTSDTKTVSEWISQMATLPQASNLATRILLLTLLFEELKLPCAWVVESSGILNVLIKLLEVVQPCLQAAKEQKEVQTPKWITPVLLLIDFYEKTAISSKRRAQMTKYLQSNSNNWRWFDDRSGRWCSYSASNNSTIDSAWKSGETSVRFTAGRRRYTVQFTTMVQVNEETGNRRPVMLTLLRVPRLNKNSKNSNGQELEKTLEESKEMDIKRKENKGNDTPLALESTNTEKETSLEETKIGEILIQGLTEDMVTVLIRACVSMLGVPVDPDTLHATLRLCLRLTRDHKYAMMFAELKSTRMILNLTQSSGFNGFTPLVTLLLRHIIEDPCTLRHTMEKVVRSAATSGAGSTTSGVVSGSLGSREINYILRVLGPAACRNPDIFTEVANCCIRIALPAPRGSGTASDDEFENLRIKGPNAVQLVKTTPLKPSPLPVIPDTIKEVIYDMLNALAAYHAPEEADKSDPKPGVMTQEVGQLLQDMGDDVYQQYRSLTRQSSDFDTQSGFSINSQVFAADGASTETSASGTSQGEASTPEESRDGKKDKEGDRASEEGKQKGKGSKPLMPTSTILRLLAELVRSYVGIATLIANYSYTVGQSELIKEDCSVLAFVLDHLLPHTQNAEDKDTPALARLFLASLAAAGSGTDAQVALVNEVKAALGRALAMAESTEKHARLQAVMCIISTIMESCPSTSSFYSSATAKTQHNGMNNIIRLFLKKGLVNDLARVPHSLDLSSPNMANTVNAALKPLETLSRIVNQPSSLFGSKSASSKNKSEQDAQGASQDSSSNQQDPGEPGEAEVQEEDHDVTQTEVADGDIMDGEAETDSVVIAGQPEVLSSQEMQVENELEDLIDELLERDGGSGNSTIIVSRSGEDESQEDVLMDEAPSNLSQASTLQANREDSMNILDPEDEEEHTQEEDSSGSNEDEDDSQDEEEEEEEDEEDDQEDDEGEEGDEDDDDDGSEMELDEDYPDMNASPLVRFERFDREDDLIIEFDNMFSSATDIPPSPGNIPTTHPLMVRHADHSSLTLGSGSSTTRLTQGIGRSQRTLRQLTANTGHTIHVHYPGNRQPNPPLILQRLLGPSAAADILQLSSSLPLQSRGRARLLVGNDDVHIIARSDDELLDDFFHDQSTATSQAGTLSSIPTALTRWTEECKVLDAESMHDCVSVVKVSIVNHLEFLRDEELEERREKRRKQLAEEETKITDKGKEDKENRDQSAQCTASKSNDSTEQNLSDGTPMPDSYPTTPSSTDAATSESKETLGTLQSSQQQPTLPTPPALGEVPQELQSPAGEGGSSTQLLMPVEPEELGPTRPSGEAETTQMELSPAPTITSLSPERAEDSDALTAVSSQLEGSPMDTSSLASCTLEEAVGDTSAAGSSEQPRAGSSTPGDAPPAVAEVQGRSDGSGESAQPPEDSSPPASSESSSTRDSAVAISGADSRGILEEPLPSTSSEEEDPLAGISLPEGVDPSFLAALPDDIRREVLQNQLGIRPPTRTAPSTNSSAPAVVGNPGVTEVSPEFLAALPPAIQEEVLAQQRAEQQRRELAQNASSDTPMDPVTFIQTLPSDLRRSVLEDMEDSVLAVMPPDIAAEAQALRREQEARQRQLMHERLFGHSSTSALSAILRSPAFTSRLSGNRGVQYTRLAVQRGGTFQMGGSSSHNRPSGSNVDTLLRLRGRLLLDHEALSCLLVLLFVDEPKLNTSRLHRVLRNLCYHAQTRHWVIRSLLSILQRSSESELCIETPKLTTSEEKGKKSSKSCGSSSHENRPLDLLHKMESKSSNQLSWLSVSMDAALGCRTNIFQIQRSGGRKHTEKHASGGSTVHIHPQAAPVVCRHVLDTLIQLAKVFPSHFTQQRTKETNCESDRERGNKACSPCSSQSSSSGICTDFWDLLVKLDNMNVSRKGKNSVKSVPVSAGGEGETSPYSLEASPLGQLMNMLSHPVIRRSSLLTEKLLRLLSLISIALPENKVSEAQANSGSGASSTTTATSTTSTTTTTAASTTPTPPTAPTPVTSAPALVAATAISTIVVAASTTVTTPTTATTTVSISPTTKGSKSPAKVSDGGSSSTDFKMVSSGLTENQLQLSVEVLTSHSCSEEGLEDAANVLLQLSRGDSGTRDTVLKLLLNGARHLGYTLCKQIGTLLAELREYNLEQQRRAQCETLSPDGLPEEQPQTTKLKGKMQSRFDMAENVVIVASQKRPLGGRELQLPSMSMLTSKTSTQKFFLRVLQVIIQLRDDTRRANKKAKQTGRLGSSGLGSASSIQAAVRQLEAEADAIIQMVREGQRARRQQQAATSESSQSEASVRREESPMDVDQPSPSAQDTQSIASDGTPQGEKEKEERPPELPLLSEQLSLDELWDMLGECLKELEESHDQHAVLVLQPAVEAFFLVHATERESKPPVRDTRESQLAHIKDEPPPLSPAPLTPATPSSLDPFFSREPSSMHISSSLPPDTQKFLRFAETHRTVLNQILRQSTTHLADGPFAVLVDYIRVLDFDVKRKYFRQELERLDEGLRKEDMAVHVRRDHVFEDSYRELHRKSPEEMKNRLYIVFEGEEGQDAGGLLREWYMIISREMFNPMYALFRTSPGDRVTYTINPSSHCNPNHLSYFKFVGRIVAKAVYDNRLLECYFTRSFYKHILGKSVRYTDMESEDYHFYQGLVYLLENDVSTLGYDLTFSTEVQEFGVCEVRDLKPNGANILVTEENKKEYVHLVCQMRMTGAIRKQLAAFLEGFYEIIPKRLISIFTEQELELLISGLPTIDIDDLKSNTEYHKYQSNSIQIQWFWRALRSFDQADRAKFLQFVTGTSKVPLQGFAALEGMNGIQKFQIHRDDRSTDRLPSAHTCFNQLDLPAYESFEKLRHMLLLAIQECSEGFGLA

Molecular target: T1, autophagy-related protein 101 (ATG101), endogenous (human (endogenous in MIA PaCa-2)) (UniProt Q9BSB4)
T1 sequence: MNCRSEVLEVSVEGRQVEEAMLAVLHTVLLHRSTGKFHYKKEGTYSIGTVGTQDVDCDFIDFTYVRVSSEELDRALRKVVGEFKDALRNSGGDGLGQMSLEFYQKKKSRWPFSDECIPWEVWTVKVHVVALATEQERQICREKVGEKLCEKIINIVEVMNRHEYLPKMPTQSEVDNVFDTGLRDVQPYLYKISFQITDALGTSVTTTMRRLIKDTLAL
Assay: affinity purification with mass spectrometry; immunoprecipitation of ATG101 from MIA PaCa-2 cells, LC-MS/MS of the immunoprecipitated complex

binding: binds
Substance: HECT, UBA and WWE domain containing E3 ubiquitin protein ligase 1 (HUWE1), endogenous (from UniProt Q7Z6Z7 1-4374) (enzyme)
